Data published in PubChem BioAssay AID2549 (National Center for Advancing Translational Sciences (NCATS), 2010).
Out of some 240,000 compounds screened, about 1,300 (0.54%) were called active. The inconclusive results got no clear call from the source; some entries with a clear call stand among them for comparison. The call rests on the fitted dose curve; in most records, active means well fitted inhibition curve with a large enough effect; inconclusive means small, poorly fitted or top-dose-only effect; inactive means flat fitted curve, though single readings scatter. Potencies beside an inconclusive call are fits to weak or partial responses and may not hold up. *1 amine or outer side, *2 acyl side, *3 side chain or, on linkers, in order; H or OH if unused. Where a SMILES comes first, the peptide text is derived from it. Bridges are numbered along the chain shown (N, C = ends). Roman numbers before positions name the chains, in order. [ ]: non-standard residue; d: D form. The star is where a group is joined. ξ: configuration not given here. Actinocin(9to1) = Cc1c2oc3c(C)ccc(C(=O)[*:1])c3nc-2c(C(=O)[*:2])c(N)c1=O; Octanoyl(6-Me) = CCC(C)CCCCC(=O)*; ξThr(3R) = C[C@@H](O)C(N)C(=O)O; NMeV = CN[CH](C(=O)O)C(C)C; dDab = NCC[C@@H](N)C(=O)O; Dab = NCC[C@H](N)C(=O)O; Sar = CNCC(=O)O

Protein sequences, listed by entry. Tags and fused reporters are not part of them. Lines headed by an entry give the natural chain unless they say otherwise; changes in a name come on top.
UniProt P46063: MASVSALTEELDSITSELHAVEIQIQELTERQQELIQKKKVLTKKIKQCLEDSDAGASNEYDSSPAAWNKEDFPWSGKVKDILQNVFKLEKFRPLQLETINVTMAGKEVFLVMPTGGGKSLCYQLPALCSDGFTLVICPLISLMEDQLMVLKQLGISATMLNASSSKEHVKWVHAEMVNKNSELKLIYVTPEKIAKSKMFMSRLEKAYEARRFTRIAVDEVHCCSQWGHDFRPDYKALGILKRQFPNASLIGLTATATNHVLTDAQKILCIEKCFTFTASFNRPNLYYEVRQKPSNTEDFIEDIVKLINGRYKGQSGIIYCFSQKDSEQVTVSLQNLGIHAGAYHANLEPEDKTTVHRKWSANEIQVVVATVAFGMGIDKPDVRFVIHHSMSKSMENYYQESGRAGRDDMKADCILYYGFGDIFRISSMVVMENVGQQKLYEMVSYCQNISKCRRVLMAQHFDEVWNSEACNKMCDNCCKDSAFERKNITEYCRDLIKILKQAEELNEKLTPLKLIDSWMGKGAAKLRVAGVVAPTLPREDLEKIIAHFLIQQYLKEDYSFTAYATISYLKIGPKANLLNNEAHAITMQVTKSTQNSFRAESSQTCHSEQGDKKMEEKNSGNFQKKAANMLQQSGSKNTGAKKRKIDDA

molecular target: ATP-dependent DNA helicase Q1 (Homo sapiens) (UniProt P46063); assay: qHTS Assay for Inhibitors of RecQ-Like Dna Helicase 1 (RECQ1); details: RECQ1 DNA unwinding, red fluorescence kinetic read; activity, negative = inhibition: at 57.3 µM (top of the series); series mostly up to 57.3 µM; further: nearly all actives have a fitted effect of over 30% in size;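 on activity, negative = inhibition: plate controls were vehicle for no effect and no enzyme for full effect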
Summary of the method: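 50 nM RECQ1T1 preincubated 15 min with compound in Tris pH 8.0 buffer with MgCl2, DTT, Tween-20 and 2.5 ug/ml poly(dI-dC); started with 200 nM TAMRA/BHQ-2 forked duplex and 2 mM ATP. Unwinding read as fluorescence (525/598 nm), two reads 2 h apart.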
Potency means the concentration at half of the fitted maximal effect.

SMILES	activity, negative = inhibition	Potency	outcome
CC=O	inactive: -5.21%	–	–
CC[n+]1c(/C=C2\Sc3ccccc3N2C)ccc2cccc(C)c21	–	inconclusive: 39.8 µM [inhibitor, single point]	–
CCOC(=O)N1CCN(C(=O)N2CCOCC2)CC1	–	inconclusive: 0.178 µM [inhibitor, full curve, poor fit]	–
Fc1ccccc1CN1CCCN(C(=S)Nc2cccc(Cl)c2)C1	–	inconclusive: 15.8 µM [inhibitor, partial curve, poor fit]	–
CCCCNC(=O)NCC(=O)Nc1ccc(F)c(F)c1	–	inconclusive: 3.55 µM [inhibitor, single point]	–
O=C(N/N=C/c1c[nH]c2ccccc12)c1ccn(Cc2ccc(Cl)cc2)n1	–	inconclusive: 35.5 µM [inhibitor, partial curve]	–
Cc1cc(/C=C2\SC(=Nc3ccc(F)cc3)NC2=O)c(C)n1-c1ccc(S(N)(=O)=O)cc1	–	inconclusive: 0.178 µM [inhibitor, full curve, poor fit]	–
COc1cc(C(=O)N/N=C/c2ccc(OC(=O)N3CCOCC3)cc2)cc(OC)c1OC	inactive: 6.76%	–	–
O=C(CSc1nnc(-c2ccncc2)o1)NCc1ccccc1Cl	–	inconclusive: 39.8 µM [inhibitor, partial curve]	–
O=C1c2cccc3c(O)ccc(c23)C(=O)N1Cc1ccco1	–	inconclusive: 39.8 µM [inhibitor, single point]	–
CCn1c(=O)c(=O)[nH]c2cc(C(=O)N3CCN(c4ccccc4F)CC3)ccc21	–	active: 25.1 µM	–
N#CC1=C(N)C2=C(N3CCCCC3)CCCC2C1(C#N)C#N (centres undefined)	–	inconclusive: 35.5 µM [inhibitor, single point]	–
O=C(CCc1ccccn1)NC1CCCc2c1cnn2-c1ccc(F)cc1F (centres undefined)	–	inconclusive: 25.1 µM [inhibitor, single point]	–
COC(=O)c1c(N)n(-c2ccc(NC(C)=O)cc2)c2nc3ccccc3nc12	inactive: 2.02%	–	–
CCCCCCCCCCCCCCCC(=O)OC[C@@H](COP(=O)([O-])OCC[N+](C)(C)C)OC(=O)CCCCCCCCCCCCCCC	inactive: 9.15%	–	–
COc1ccccc1NC(=O)N1C2CCCC1CC(NC(=O)c1ccccc1)C2 (centres undefined)	–	inconclusive: 3.55 µM [inhibitor, partial curve, poor fit]	–
N#C/C(=C\c1ccc(N2CCOCC2)o1)c1nc2ccccc2[nH]1	–	active: 31.6 µM	–
Cc1cc(C(=O)N/N=C/c2cc(Cl)cc([N+](=O)[O-])c2O)n[nH]1	inactive: -2.2%	–	–
Cc1ccc2c(c1)C1C=CCC1C(C(=O)O)N2 (centres undefined)	–	active: 8.91 µM	–
CNC(=S)N1N=C(c2ccc(OC)cc2)CC1c1ccc(N(C)C)cc1 (centres undefined)	–	inconclusive: 0.562 µM [inhibitor, partial curve, poor fit]	–

SMILES	activity, negative = inhibition	Potency	outcome
N#C/C(=C\c1ccc(C(=O)O)cc1)c1nc2sc3c(c2c(=O)[nH]1)CCCC3	–	active: 25.1 µM	–
C=CCc1cc(/C=C/c2nc(O)c([N+](=O)[O-])c(=O)[nH]2)cc(OC)c1O	–	inconclusive: 28.2 µM [inhibitor, single point]	–
O=C(/C=C/c1ccco1)Nc1cccnc1Cl	–	inconclusive: 35.5 µM [inhibitor, single point]	–
Cc1ccc(C(C[N+](=O)[O-])Sc2ccc(N)cc2)cc1 (centres undefined)	inactive: -5.04%	–	–
CCC(C)CCCCC(=O)N[C@@H](CCN)C(=O)N[C@H](C(=O)N[C@@H](CCN)C(=O)N[C@H]1CCNC(=O)C([C@@H](C)O)NC(=O)[C@@H](CCN)NC(=O)[C@H](CCN)NC(=O)[C@H](CC(C)C)NC(=O)[C@@H](CC(C)C)NC(=O)[C@H](CCN)NC1=O)[C@@H](C)O (stereo partly drawn) ({Octanoyl(6-Me)}-[Dab]T[Dab][Dab][Dab][dL]L[Dab][dDab][ξThr(3R)]; lactam 4-C)	–	inconclusive: 35.5 µM [inhibitor, single point]	–
c1ccc(CNc2ncnc3nc[nH]c23)nc1	–	inconclusive: 1.26 µM [inhibitor, full curve, poor fit]	–
N=C1C(c2nc3ccccc3s2)=C(O)CN1NC(=O)c1c[nH]c2ccccc12	–	–	inactive
Cc1c2oc3c(C)ccc(C(=O)NC4C(=O)NC(C(C)C)C(=O)N5CCCC5C(=O)N(C)CC(=O)N(C)C(C(C)C)C(=O)OC4C)c3nc-2c(C(=O)NC2C(=O)NC(C(C)C)C(=O)N3CCCC3C(=O)N(C)CC(=O)N(C)C(C(C)C)C(=O)OC2C)c(N)c1=O (centres undefined) (I: TVP[Sar][NMeV] / II: TVP[Sar][NMeV]; ester I:1-I:C, II:1-II:C; linker I:N-II:N via Actinocin(9to1); configuration not given here)	–	active: 3.16 µM	–
COC(=O)c1c(NC(=S)NN2CCOCC2)sc2c1CCCC2	–	inconclusive: 0.158 µM [inhibitor, full curve, poor fit]	–
O=C1CC(SC2=NCCS2)C(=O)N1c1ccc(Br)cc1 (centres undefined)	–	inconclusive: 7.08 µM [inhibitor, single point]	–
C=CCn1c(SCC(=O)NCC2CCCO2)nc2scc(-c3ccco3)c2c1=O (centres undefined)	–	inconclusive: 39.8 µM [inhibitor, partial curve, poor fit]	–
COc1cc(N/N=C/c2ccccc2O)ncn1	inactive: -2.46%	–	–
COc1cccc(-c2cn3nc4c(nc3n2)CCCC4)c1	inactive: -6.11%	–	–
Cc1cccc2sc(NC(=O)c3cccc(S(=O)(=O)N4CCc5ccccc54)c3)nc12	–	inconclusive: 7.08 µM [inhibitor, partial curve]	–
Cc1nnc(NC(=O)CCSCCC(=O)Nc2nnc(C)s2)s1	–	inconclusive: 31.6 µM [inhibitor, single point]	–
N#C/C(=C\c1ccco1)c1nc2ccccc2s1	–	inconclusive: 39.8 µM [inhibitor, single point]	–
CCOc1ccc(OCCOCCNCCOC)cc1	–	inconclusive: 3.55 µM [inhibitor, full curve]	–
CCC(CO)[n+]1c(C)cc(/C=C2\Sc3ccccc3N2Cc2ccccc2)cc1C (centres undefined)	–	inconclusive: 28.2 µM [inhibitor, single point]	–
COc1ccccc1-c1nnc(Nc2nc3c(OC)cccc3s2)o1	–	inconclusive: 31.6 µM [inhibitor, single point]	–

Part of the list above with just Potency and outcome:
SMILES	Potency	outcome
COC(=O)c1c(NC(=S)NN2CCOCC2)sc2c1CCCC2	inconclusive: 0.158 µM [inhibitor, full curve, poor fit]	–
Cc1cccc2sc(NC(=O)c3cccc(S(=O)(=O)N4CCc5ccccc54)c3)nc12	inconclusive: 7.08 µM [inhibitor, partial curve]	–
